Measured values published in patent publication US20190233540A1.
These are yes or no findings as the source states them, for the method shown. Some results given as binding are weak or reduced against the parent protein; the word gives no strength.

Chains of the proteins cited; added tags and fusions are not shown. Residues count along the entry.
UniProt Q80W65, residues 35-694: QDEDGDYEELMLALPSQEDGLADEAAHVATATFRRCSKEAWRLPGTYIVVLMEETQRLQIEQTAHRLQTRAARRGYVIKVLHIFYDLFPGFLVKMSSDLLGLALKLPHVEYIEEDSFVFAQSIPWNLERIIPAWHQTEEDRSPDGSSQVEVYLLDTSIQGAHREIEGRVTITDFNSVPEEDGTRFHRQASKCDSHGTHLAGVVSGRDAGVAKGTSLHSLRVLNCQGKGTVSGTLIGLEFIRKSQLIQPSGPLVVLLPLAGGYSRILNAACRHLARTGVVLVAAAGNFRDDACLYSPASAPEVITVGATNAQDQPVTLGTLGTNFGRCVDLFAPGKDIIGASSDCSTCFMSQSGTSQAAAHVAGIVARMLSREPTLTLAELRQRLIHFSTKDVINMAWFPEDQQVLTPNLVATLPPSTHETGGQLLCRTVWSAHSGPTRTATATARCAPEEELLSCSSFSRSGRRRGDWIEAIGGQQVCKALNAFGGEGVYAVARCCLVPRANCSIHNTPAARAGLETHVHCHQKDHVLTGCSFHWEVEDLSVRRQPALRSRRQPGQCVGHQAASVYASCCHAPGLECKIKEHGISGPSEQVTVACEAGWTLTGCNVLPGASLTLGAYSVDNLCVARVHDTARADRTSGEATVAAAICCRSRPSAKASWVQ

Target: murine-derived PCSK9 (murine) (UniProt Q80W65)
Assay: ELISA, species cross-reactivity

Row | Binder | binding
1 | 3G12 murine-derived anti-PCSK9 monoclonal antibody (antibody, V domains shown) VH: QVQLKQSGPSLLQPSQSLSITCTVSGFSLTSYGIHWVRQSPGKGLEWLGVIWRGGITDYNAPFMSRLNITKDNSKNQVFFKMNSLQVDDTAIYYCANHRDWGQGTLVTVSA VL: DIQMTQSPSSLSASLGGKVTITCKASQDINKYIDWYQHKPGKSPRLLIHYASTLQPGIPSRFSGSGSGRDYSFSISNLEPEDIATYYCLQYDDLWTFGGGTKLEIK | binds
2 | 1A5 murine-derived anti-PCSK9 monoclonal antibody (antibody, V domains shown) VH: QVQLKQSGPSLVQPSQSLSITCTVSGFSLTSYGVHWVRQSPGKGLEWLGVIWRGGSTDYNAAFMSRLSITKDNSKSQVFFKMNSLQADDTAIYYCANHRDWGQGTLVTVSA VL: DIQMTQSPSSLSASLGDKVTITCKASQDINKYIDWYQHKPGKGPRLLIHYTSTLQPGIPSRFSGSGSGRDYSFSISNLEPEDIATYYCVQYDDLWTFGGGTKLEIK | binds
3 | 2B12 murine-derived anti-PCSK9 monoclonal antibody (antibody, V domains shown) VH: DVQLQESGPGLVKPSQSLSLTCSVTGFSITSDYAWNWIRQFPGNKLEWMGYISYSGTTNYNPSLKSRISITRDTSKNQFFLHLNSVITEDTATYYCARREGHYSWFPYWGQGTLVTVSA VL: DIVLTQSPASLAVSLGQRATISCRASESVEYYGTSLMHWYQHKPGQTPKLLIYSGSNVESGVPARFSGSGSGTDFSLNIHPVEEDDIAMYFCQQSREVPSTFGGGTKLEIK | binds
